Paper PMC4775226, “Active and water-soluble form of lipidated Wnt protein is maintained by a serum glycoprotein afamin/α-albumin” (eLife, 2016)
No constants are given. Whether binding was seen depends on the method and setting. For some of these results: Binding seen in cells or lysates may run through a third protein. Some results given as binding are weak or reduced against the parent protein; the word gives no strength. For some of these results: Tags and fused reporters may be left off the sequences shown.

Amino acid sequences for entries named in this document (tags omitted). Residues count along the entry.
UniProt P27467, residues 19-352: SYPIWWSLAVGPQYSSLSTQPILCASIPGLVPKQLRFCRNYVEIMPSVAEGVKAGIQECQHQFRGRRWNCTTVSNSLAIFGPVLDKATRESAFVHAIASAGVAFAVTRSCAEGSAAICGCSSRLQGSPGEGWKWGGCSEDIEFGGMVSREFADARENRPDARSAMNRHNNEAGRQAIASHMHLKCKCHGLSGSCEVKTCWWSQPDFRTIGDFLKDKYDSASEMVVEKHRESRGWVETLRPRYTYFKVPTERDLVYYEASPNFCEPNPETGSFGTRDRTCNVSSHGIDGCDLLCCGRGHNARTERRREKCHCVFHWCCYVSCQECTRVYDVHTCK
UniProt P56704, residues 19-352: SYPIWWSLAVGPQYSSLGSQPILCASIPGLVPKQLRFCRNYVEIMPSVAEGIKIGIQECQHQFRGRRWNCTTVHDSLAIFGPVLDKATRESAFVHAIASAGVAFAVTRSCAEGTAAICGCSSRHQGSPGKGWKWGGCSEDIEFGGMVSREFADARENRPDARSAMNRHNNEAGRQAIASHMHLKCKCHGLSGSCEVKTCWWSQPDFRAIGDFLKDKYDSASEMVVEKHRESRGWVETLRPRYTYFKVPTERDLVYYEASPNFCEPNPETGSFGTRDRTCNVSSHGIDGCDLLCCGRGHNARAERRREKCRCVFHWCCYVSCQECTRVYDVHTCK
UniProt O00744, residues 29-389: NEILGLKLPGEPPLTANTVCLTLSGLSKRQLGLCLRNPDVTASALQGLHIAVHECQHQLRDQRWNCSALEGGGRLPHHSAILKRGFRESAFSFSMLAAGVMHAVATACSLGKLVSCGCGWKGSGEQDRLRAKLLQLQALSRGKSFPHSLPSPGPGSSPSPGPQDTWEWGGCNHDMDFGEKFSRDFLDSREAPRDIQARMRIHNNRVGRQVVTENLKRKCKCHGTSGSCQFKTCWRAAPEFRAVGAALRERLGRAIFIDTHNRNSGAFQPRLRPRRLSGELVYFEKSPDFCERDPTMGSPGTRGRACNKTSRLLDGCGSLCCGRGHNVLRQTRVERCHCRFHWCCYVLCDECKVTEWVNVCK

T1: Tg-tagged human afamin (human) (UniProt P43652)
T1 sequence: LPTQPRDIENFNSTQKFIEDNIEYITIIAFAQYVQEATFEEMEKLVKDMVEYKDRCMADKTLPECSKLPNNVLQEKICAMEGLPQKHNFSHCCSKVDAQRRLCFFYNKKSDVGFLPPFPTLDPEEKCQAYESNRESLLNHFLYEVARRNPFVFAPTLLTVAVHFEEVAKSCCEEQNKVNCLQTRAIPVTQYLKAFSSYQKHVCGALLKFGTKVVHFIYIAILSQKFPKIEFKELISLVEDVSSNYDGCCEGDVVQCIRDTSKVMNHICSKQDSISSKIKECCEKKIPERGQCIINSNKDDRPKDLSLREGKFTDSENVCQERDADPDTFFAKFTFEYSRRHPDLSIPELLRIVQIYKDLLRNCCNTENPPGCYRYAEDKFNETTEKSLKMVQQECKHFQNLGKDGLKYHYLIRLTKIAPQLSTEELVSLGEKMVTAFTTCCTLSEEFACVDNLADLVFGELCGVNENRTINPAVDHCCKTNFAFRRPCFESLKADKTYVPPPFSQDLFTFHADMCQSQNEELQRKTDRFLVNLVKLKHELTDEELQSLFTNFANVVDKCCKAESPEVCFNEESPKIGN

T2: bovine afamin from the serum of the culture medium (bovine) (UniProt G3MYZ3)
T2 sequence: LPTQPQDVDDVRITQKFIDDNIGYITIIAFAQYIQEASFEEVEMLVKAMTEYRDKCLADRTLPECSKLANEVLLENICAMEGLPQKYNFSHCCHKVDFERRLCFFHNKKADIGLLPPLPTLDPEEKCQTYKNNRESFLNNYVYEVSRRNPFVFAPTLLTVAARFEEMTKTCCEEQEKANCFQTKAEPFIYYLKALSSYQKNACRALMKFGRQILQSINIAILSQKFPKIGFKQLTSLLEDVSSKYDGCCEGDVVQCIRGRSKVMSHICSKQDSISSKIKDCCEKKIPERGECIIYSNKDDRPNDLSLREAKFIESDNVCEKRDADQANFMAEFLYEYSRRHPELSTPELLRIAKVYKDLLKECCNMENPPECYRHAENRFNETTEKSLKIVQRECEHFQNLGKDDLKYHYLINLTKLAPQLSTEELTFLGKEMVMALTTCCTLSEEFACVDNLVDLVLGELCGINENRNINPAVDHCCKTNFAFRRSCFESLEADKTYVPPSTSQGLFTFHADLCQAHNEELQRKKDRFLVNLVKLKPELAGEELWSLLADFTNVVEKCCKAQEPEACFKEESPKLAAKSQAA

T3: TARGET-tagged mouse Wnt5a (mouse) (UniProt P22725)
T3 sequence: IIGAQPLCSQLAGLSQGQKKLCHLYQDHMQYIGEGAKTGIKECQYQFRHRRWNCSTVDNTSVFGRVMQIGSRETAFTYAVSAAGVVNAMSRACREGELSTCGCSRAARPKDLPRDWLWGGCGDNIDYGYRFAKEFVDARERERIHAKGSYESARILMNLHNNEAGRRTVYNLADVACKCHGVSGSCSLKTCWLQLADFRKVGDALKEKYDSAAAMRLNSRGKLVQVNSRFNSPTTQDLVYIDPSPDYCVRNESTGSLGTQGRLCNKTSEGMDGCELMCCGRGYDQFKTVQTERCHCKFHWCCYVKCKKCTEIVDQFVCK

B1: PA-tagged human Wnt1 (protein, UniProt P04628 28-370)
chain: ANSSGRWWGIVNVASSTNLLTDSKSLQLVLEPSLQLLSRKQRRLIRQNPGILHSVSGGLQSAVRECKWQFRNRRWNCPTAPGPHLFGKIVNRGCRETAFIFAITSAGVTHSVARSCSEGSIESCTCDYRRRGPGGPDWHWGGCSDNIDFGRLFGREFVDSGEKGRDLRFLMNLHNNEAGRTTVFSEMRQECKCHGMSGSCTVRTCWMRLPTLRAVGDVLRDRFDGASRVLYGNRGSNRASRAELLRLEPEDPAHKPPSPHDLVYFEKSPNFCTYSGRLGTAGTAGRACNSSSPALDGCELLCCGRGHRTRTQRVTERCNCTFHWCCHVSCRNCTHTRVLHECL
B2: PA-tagged human Wnt5a (protein, UniProt P41221 62-380)
chain: IIGAQPLCSQLAGLSQGQKKLCHLYQDHMQYIGEGAKTGIKECQYQFRHRRWNCSTVDNTSVFGRVMQIGSRETAFTYAVSAAGVVNAMSRACREGELSTCGCSRAARPKDLPRDWLWGGCGDNIDYGYRFAKEFVDARERERIHAKGSYESARILMNLHNNEAGRRTVYNLADVACKCHGVSGSCSLKTCWLQLADFRKVGDALKEKYDSAAAMRLNSRGKLVQVNSRFNSPTTQDLVYIDPSPDYCVRNESTGSLGTQGRLCNKTSEGMDGCELMCCGRGYDQFKTVQTERCHCKFHWCCYVKCKKCTEIVDQFVCK
B3: PA-tagged human Wnt7a (protein, UniProt O00755 32-349)
chain: LGASIICNKIPGLAPRQRAICQSRPDAIIVIGEGSQMGLDECQFQFRNGRWNCSALGERTVFGKELKVGSREAAFTYAIIAAGVAHAITAACTQGNLSDCGCDKEKQGQYHRDEGWKWGGCSADIRYGIGFAKVFVDAREIKQNARTLMNLHNNEAGRKILEENMKLECKCHGVSGSCTTKTCWTTLPQFRELGYVLKDKYNEAVHVEPVRASRNKRPTFLKIKKPLSYRKPMDTDLVYIEKSPNYCEEDPVTGSVGTQGRACNKTAPQASGCDLMCCGRGYNTHQYARVWQCNCKFHWCCYVKCNTCSERTEMYTCK
B4: PA-tagged human Wnt7b (protein, UniProt P56706 25-349)
chain: ALSSVVALGANIICNKIPGLAPRQRAICQSRPDAIIVIGEGAQMGINECQYQFRFGRWNCSALGEKTVFGQELRVGSREAAFTYAITAAGVAHAVTAACSQGNLSNCGCDREKQGYYNQAEGWKWGGCSADVRYGIDFSRRFVDAREIKKNARRLMNLHNNEAGRKVLEDRMQLECKCHGVSGSCTTKTCWTTLPKFREVGHLLKEKYNAAVQVEVVRASRLRQPTFLRIKQLRSYQKPMETDLVYIEKSPNYCEEDAATGSVGTQGRLCNRTSPGADGCDTMCCGRGYNTHQYTKVWQCNCKFHWCCFVKCNTCSERTEVFTCK
B5: PA-tagged human Wnt8a (protein, UniProt Q9H1J5 25-351)
chain: VNNFLITGPKAYLTYTTSVALGAQSGIEECKFQFAWERWNCPENALQLSTHNRLRSATRETSFIHAISSAGVMYIITKNCSMGDFENCGCDGSNNGKTGGHGWIWGGCSDNVEFGERISKLFVDSLEKGKDARALMNLHNNRAGRLAVRATMKRTCKCHGISGSCSIQTCWLQLAEFREMGDYLKAKYDQALKIEMDKRQLRAGNSAEGHWVPAEAFLPSAEAELIFLEESPDYCTCNSSLGIYGTEGRECLQNSHNTSRWERRSCGRLCTECGLQVEERKTEVISSCNCKFQWCCTVKCDQCRHVVSKYYCARSPGSAQSLGKGSA
B6: PA-tagged human Wnt9a (protein, UniProt O14904 30-365)
chain: YFGLTGSEPLTILPLTLEPEAAAQAHYKACDRLKLERKQRRMCRRDPGVAETLVEAVSMSALECQFQFRFERWNCTLEGRYRASLLKRGFKETAFLYAISSAGLTHALAKACSAGRMERCTCDEAPDLENREAWQWGGCGDNLKYSSKFVKEFLGRRSSKDLRARVDFHNNLVGVKVIKAGVETTCKCHGVSGSCTVRTCWRQLAPFHEVGKHLKHKYETALKVGSTTNEAAGEAGAISPPRGRASGAGGSDPLPRTPELVHLDDSPSFCLAGRFSPGTAGRRCHREKNCESICCGRGHNTQSRVVTRPCQCQVRWCCYVECRQCTQREEVYTCKG
B7: PA-tagged human Wnt9b (protein, UniProt O14905 23-357)
chain: SYFGLTGREVLTPFPGLGTAAAPAQGGAHLKQCDLLKLSRRQKQLCRREPGLAETLRDAAHLGLLECQFQFRHERWNCSLEGRMGLLKRGFKETAFLYAVSSAALTHTLARACSAGRMERCTCDDSPGLESRQAWQWGVCGDNLKYSTKFLSNFLGSKRGNKDLRARADAHNTHVGIKAVKSGLRTTCKCHGVSGSCAVRTCWKQLSPFRETGQVLKLRYDSAVKVSSATNEALGRLELWAPARQGSLTKGLAPRSGDLVYMEDSPSFCRPSKYSPGTAGRVCSREASCSSLCCGRGYDTQSRLVAFSCHCQVQWCCYVECQQCVQEELVYTCKH
B8: bovine afamin from the serum of the culture medium (natural protein, UniProt G3MYZ3 22-604, looked up)
chain: LPTQPQDVDDVRITQKFIDDNIGYITIIAFAQYIQEASFEEVEMLVKAMTEYRDKCLADRTLPECSKLANEVLLENICAMEGLPQKYNFSHCCHKVDFERRLCFFHNKKADIGLLPPLPTLDPEEKCQTYKNNRESFLNNYVYEVSRRNPFVFAPTLLTVAARFEEMTKTCCEEQEKANCFQTKAEPFIYYLKALSSYQKNACRALMKFGRQILQSINIAILSQKFPKIGFKQLTSLLEDVSSKYDGCCEGDVVQCIRGRSKVMSHICSKQDSISSKIKDCCEKKIPERGECIIYSNKDDRPNDLSLREAKFIESDNVCEKRDADQANFMAEFLYEYSRRHPELSTPELLRIAKVYKDLLKECCNMENPPECYRHAENRFNETTEKSLKIVQRECEHFQNLGKDDLKYHYLINLTKLAPQLSTEELTFLGKEMVMALTTCCTLSEEFACVDNLVDLVLGELCGINENRNINPAVDHCCKTNFAFRRSCFESLEADKTYVPPSTSQGLFTFHADLCQAHNEELQRKKDRFLVNLVKLKPELAGEELWSLLADFTNVVEKCCKAQEPEACFKEESPKLAAKSQAA
notes: bovine afamin, serum-derived; Glycoprotein of about 70 kDa; also called AFM; α-albumin; source: endogenous, fetal calf serum in the culture medium

Legend:
[1] = target: T1, Tg-tagged human afamin (human); experiment: co-IP; anti-Tg antibody P20.1-Sepharose, serum-free culture media of Expi293F cells co-transfected with Tg-hAFM and PA-tagged human Wnts; immunoblot with biotinylated NZ-1
[2] = target: T2, bovine afamin from the serum of the culture medium (bovine); experiment: co-IP; anti-bovine AFM monoclonal antibody B91 on Sepharose, 1 ml of serum-containing conditioned medium, 4°C for 3 h, washed three times with TBS; Oriole stain and anti-Wnt3a immunoblot
[3] = target: T3, TARGET-tagged mouse Wnt5a (mouse); experiment: co-IP; anti-TARGET tag antibody P20.1-Sepharose incubated with serum-containing conditioned medium at 4°C for 3 hr, washed with TBS (20 mM Tris, 150 mM NaCl, pH 7.5), eluted with 0.2 mg/ml C8 peptide; SDS-PAGE, Coomassie or Oriole stain, N-terminal Edman sequencing of the bands
[4] = target: T3, TARGET-tagged mouse Wnt5a (mouse); experiment: SEC; immunoaffinity-purified Wnt preparation on Superdex 200 10/300GL in TBS, no detergent; fractions on nonreducing SDS-PAGE, Coomassie stain and immunoblots; both purified
[5] = target: TARGET-tagged mouse Wnt3a (mouse) (UniProt P27467); experiment: SEC; affinity-purified Wnt3a preparation containing AFM on Superdex 200 in the presence of 1% CHAPS; fractions on nonreducing SDS-PAGE, Coomassie stain and immunoblots; both purified

| Molecule | binding [1] | also measured |
| --- | --- | --- |
| PA-tagged human Wnt3a (from UniProt P56704 19-352) | binds | – |
| untagged mouse Wnt3a secreted from L-3a cells (from UniProt P27467 19-352) | – | binding [2]: binds |
| PA-tagged human Wnt10b (from UniProt O00744 29-389) | binds | – |
| B1 | binds | – |
| B2 | binds | – |
| B3 | binds | – |
| B4 | binds | – |
| B5 | binds | – |
| B6 | binds | – |
| B7 | binds | – |
| B8 | – | binding [3]: binds; binding [4]: binds; binding [5]: no binding (condition: with 1% CHAPS) |
